Patent publication US20100016237 (published 2010)

Test: general procedure: Fmoc solid-phase peptide synthesis; Fmoc-Rink amide AM resin; HOBt ester (HOAt and DIPEA for Fmoc-Glu(2-phenylisopropyloxy)-OH)
Details: whole synthesis, UV214 nm, scale 0.25 mmol

## {2-[2-(16-(tetrazol-5-yl)hexadecanoylamino)ethoxy]ethoxy}acetyl-Gly-Ser-Gln-His-Dap(iPr)-D-Leu-c[Glu-Hyp-D-Phe-Arg-Trp-Lys]-NH2
  final HPLC purity: 99% purity by UV214 nm
